This is one part of the list. No stated cut-off is given here; in the data, active = 2 or more and inactive = the rest. This data set is noisy: repeats of one test often differ as much as different tests do.
What follows are compounds tested on Lgr5 (MarsCy1-Lgr5-EGFP, U2OS) (assay: cell-surface Lgr5 expression (SCi1 fluorescence, background-subtracted) relative to WT DMSO (fold of DMSO control); higher = more Lgr5 at the plasma membrane). Conditions: U2OS MarsCy1-Lgr5-EGFP stable; treatment time: overnight; library: ActiProbe-5K (TimTec); 25 µM.

SMILES | cell-surface Lgr5 expression
Cc1nn(CC(=O)Nc2cnn(C(C)C)c2)c(C)c1Cl | inactive: 0.986
O=S(=O)(NC1CCCCCC1)c1ccc(F)cc1 | inactive: 1.22
CN1CCN(S(=O)(=O)c2ccc(Br)cc2)CC1 | inactive: 1.33
CON(C)c1nc(Cl)nc(N(C)C)n1 | inactive: 1.02
CCCc1nc2c(o1)C(C(=O)OC)C(C)(C)CC2=O (stereo unspecified) | inactive: 0.809
Clc1cc(-c2ccccn2)nc(-c2ccccn2)c1 | inactive: 0.389
c1ccc(-c2nc(-c3ccc4c(c3)sc3ccccc34)c(-c3ccccc3)[nH]2)cc1 | inactive: 0.699
Cn1cnnc1Sc1cc(N2CCCC2)ccc1[N+](=O)[O-] | inactive: 0.992
CC(=O)OCC(=O)C1CCC2C3CC=C4CC(O)CCC4(C)C3CCC12C (stereo unspecified) | inactive: 1.35
Nc1nnc(SCC(=O)Nc2nccs2)s1 | inactive: 1.34
O=C(O)c1cc(=O)cc(C(=O)O)o1 | inactive: 1.02
CCOC(=O)C1=C(C)NC(=O)NC1c1ccc(C)s1 (stereo unspecified) | inactive: 1.08
O=C1c2cccnc2-c2[nH]c(=O)ccc21 | inactive: 0.975
CC1CN(C)CC(C)C1=O (stereo unspecified) | inactive: 1.2
O=C1OC(c2ccccc2)=C/C1=C/c1ccc2c(c1)OCO2 | inactive: 1.23
N#Cc1sc2nc(-c3ccncc3)cc(C(F)(F)F)c2c1N | inactive: 1.44
O=C(c1ccc2[nH]c(=O)oc2c1)c1ccc2[nH]c(=O)oc2c1 | inactive: 0.986
Cc1cc(=O)n(C)c(=O)n1CCCCN1CCCC1 | inactive: 1.14
CCCC1(C)NC(=S)N(c2ccccc2)N1 (stereo unspecified) | inactive: 1.33
O=[N+]([O-])c1ccc(NCCNCCO)c([N+](=O)[O-])c1 | inactive: 1.44
N#CC1=C(O)NC(S)=C(C#N)C1 | inactive: 1.3
Oc1cc(-c2cccs2)n[nH]1 | inactive: 1.09

SMILES | cell-surface Lgr5 expression
CC(=O)Nc1sc(C)c(C)c1C(N)=O | inactive: 1.33
Cn1c(S)nc2sc3c(c2c1=O)CCC(C(C)(C)C)C3 (stereo unspecified) | inactive: 0.888
NNc1ncc([N+](=O)[O-])c2[nH]cnc12 | inactive: 0.908
O=Cc1sc([O-])nc1-[n+]1ccccc1 | inactive: 1.38
O=S(=O)(c1ccc(F)cc1)N1CCCC1 | inactive: 1.2
O=C(CC12CC3CC(CC(C3)C1)C2)N1CCCOC1 | inactive: 1.19
c1ccc(-c2nonc2/N=N/c2nonc2-c2ccccc2)cc1 | inactive: 1.26
CC(C)(C)NS(=O)(=O)c1ccc2oc3cc(-n4cnnn4)ccc3c2c1 | inactive: 1.07
C(=N/Nc1nncn1/N=C\c1cccs1)/c1cccs1 | inactive: 0.856
CC(C)CC(=O)Nc1nnc(CC(C)(C)C)s1 | inactive: 1.18
CC1=C(C#N)C(=O)C(C#N)(C#N)C(C)(C)C1 | inactive: 1.58
Nc1cc2c(cc1N1CCOC1=O)OCO2 | inactive: 1.33
Cc1nn(CCC(=O)N(C)Cc2cnn(C)c2)c(C)c1Cl | inactive: 1.28
Sc1nnc(COc2ccccc2)n1/N=C/c1c[nH]c2ccccc12 | inactive: 1.56
O=c1ccc2cc(S(=O)(=O)N3CCCN(S(=O)(=O)c4ccc5oc(=O)ccc5c4)CC3)ccc2o1 | inactive: 1.48
CNC(=S)Nc1ccc(Cl)cc1 | inactive: 1.35
CSc1ccc(C2N(Cc3ccccc3)CCN2Cc2ccccc2)cc1 | inactive: 1.4
Cc1nn(C)c2[nH]c(=O)cc(CCl)c12 | inactive: 1.2
OCCN1CNC(=S)NC1 | inactive: 1.33
Cc1nc([N+](=O)[O-])cn1Cc1nnc(N)s1 | inactive: 1.07
CC(C)OC(=O)CNc1n[nH]c(=O)[nH]c1=O | inactive: 1.11
CN(C)S(=O)(=O)N1CCN(c2ccccc2)CC1 | inactive: 1.16

SMILES | cell-surface Lgr5 expression
Cc1ccnn1CCCNc1[nH]ncc1[N+](=O)[O-] | inactive: 1.18
O=C1Nc2ccccc2/C1=N\N1CCN(C2c3ccccc3-c3ccccc32)CC1 | active: 2.68
CCCCc1[nH]nc2c1C1(CC[C@H]3CO[C@@H]1O3)C(C#N)=C(N)O2 (stereo partly specified) | inactive: 1.19
N#CC1=C(N)C(C#N)(C#N)C(c2ccc(C3C4CCCC=C4C(C#N)=C(N)C3(C#N)C#N)cc2)C2CCCC=C12 (stereo unspecified) | inactive: 1.05
FC(F)(F)c1nc2ccccc2n1Cc1cc(Cl)cc2c1OCOC2 | inactive: 1.18
Cc1c(NC(=O)Sc2n[nH]c(=O)n2-c2ccccc2)c(=O)n(-c2ccccc2)n1C | inactive: 1.37
CCOc1nc(C#N)nc(N2CCOCC2)n1 | inactive: 1.08
Sc1nnc(Cn2cnc3ccccc32)n1-c1ccccc1 | inactive: 1.21
Oc1nc([O][Na])nc2nc(SCc3ccccc3)sc12 | inactive: 1.35
CCCCCCCCC1CC1C(=O)O (stereo unspecified) | inactive: 1.04
c1ccc2c(c1)CC1(CCCCC1)N=C2N1CCOCC1 | inactive: 1.26
CCOCCOCn1c(C)c(N2CCCC2)c(=O)[nH]c1=O | inactive: 1.05
Nc1nnnn1/N=C\c1cccn1-c1ccc(S(N)(=O)=O)cc1 | inactive: 0.903
Fc1ccc(/C=N\c2ccc3cc4ccc(/N=C\c5ccc(F)cc5)cc4nc3c2)cc1 | active: 2.49
O=C1[C@H]2OC[C@H](O2)[C@H]2[C@H]1[C@H]1C=Cc3ccccc3N1[C@@H]2C(=O)c1ccc(F)cc1 | inactive: 1.31
N#Cc1cc2c(nc1SCc1cccc(C(F)(F)F)c1)CCC2 | inactive: 1.18
O=C(O)c1cn(C2CC2)c2cc(Cl)c(F)cc2c1=O | inactive: 1.26
COC(=O)[C@@H]1C[C@@H](O)CN1.Cl | inactive: 0.937
COc1ccc2nc(/C(N)=N\O)sc2c1 | inactive: 1.14
O=C1CSC2(C(=O)Nc3ccccc32)N1c1ccc(Br)cc1 (stereo unspecified) | inactive: 1.14
COC1N(c2ccccc2)N=C(c2ccccc2)N1c1ccccc1 (stereo unspecified) | inactive: 1.04
[O-][n+]1c2ccccc2[n+]([O-])c2c3ccccc3ccc21 | inactive: 0.997

Four entries picked at random from the list so far:
SMILES | cell-surface Lgr5 expression
CCOCCOCn1c(C)c(N2CCCC2)c(=O)[nH]c1=O | inactive: 1.05
CCCCc1[nH]nc2c1C1(CC[C@H]3CO[C@@H]1O3)C(C#N)=C(N)O2 (stereo partly specified) | inactive: 1.19
O=C1CSC2(C(=O)Nc3ccccc32)N1c1ccc(Br)cc1 (stereo unspecified) | inactive: 1.14
N#CC1=C(N)C(C#N)(C#N)C(c2ccc(C3C4CCCC=C4C(C#N)=C(N)C3(C#N)C#N)cc2)C2CCCC=C12 (stereo unspecified) | inactive: 1.05

From the supplement of paper PMC4683952
